At least one compound was matched to its structure with a doubt left.
Target: CI-M6PR (Homo sapiens (Human), UniProt P11717)
Experiment: Competitive binding of M6P analogs to biotinylated CI-M6PR on adsorbed pentamannose 6-phosphate (PMP)
Conditions: relative to M6C-Ethyl-NH2 taken as reference = 1
Procedure: 96-Well plates (Maxisorp Nunc) are incubated overnight at 4° C. with 200 μl of PMP (pentamannose 6-phosphate) at the concentration of 200 μg·ml^−1, in carbonate buffer (NaHCO3/Na2CO3 at 0.1M, pH 9.6). The following day, the solution containing the residual PMP is discarded and the wells are saturated, for 1 h at ambient temperature, with 360 μl of 1% gelatin (Type A from Porcine Skin) diluted in PBS (1.9 mM NaH2PO4, 8.1 mM Na2PO4 and 154 mM NaCl, pH 7.4). The wells are then rinsed five times with PBS to which 0.2% gelatin has been added. All the washes and also the dilutions are carried out in the solution of PBS to which 0.2% gelatin has been added. The M6P analogs to be tested at the various concentrations (from 10^−2 to 10^−7 M) are pre-incubated in the presence of pre-biotinylated CI-M6PR (M6PRb) ([…]) for 20 min, then 200 μl of the mixture are incubated in the wells for 2 h, at ambient temperature. […] After incubation for 20 min in the dark at ambient temperature, the optical densities are measured at the wavelength of 450 nm.
The conjugate of formula (III) is evaluated for its affinity with CI-M6PR. The binding affinity of rhGAA and of the rhGAA-M6Pn-α(1,2)-Man-Ethyloxyamino conjugate (28) was evaluated by means of a competitive binding technique with CI-M6PR described in example 2 and compared with the affinity of M6P.

The chains behind the UniProt entries cited, without tags or fusion partners. Residues count along the entry.
UniProt P11717, 41-2491: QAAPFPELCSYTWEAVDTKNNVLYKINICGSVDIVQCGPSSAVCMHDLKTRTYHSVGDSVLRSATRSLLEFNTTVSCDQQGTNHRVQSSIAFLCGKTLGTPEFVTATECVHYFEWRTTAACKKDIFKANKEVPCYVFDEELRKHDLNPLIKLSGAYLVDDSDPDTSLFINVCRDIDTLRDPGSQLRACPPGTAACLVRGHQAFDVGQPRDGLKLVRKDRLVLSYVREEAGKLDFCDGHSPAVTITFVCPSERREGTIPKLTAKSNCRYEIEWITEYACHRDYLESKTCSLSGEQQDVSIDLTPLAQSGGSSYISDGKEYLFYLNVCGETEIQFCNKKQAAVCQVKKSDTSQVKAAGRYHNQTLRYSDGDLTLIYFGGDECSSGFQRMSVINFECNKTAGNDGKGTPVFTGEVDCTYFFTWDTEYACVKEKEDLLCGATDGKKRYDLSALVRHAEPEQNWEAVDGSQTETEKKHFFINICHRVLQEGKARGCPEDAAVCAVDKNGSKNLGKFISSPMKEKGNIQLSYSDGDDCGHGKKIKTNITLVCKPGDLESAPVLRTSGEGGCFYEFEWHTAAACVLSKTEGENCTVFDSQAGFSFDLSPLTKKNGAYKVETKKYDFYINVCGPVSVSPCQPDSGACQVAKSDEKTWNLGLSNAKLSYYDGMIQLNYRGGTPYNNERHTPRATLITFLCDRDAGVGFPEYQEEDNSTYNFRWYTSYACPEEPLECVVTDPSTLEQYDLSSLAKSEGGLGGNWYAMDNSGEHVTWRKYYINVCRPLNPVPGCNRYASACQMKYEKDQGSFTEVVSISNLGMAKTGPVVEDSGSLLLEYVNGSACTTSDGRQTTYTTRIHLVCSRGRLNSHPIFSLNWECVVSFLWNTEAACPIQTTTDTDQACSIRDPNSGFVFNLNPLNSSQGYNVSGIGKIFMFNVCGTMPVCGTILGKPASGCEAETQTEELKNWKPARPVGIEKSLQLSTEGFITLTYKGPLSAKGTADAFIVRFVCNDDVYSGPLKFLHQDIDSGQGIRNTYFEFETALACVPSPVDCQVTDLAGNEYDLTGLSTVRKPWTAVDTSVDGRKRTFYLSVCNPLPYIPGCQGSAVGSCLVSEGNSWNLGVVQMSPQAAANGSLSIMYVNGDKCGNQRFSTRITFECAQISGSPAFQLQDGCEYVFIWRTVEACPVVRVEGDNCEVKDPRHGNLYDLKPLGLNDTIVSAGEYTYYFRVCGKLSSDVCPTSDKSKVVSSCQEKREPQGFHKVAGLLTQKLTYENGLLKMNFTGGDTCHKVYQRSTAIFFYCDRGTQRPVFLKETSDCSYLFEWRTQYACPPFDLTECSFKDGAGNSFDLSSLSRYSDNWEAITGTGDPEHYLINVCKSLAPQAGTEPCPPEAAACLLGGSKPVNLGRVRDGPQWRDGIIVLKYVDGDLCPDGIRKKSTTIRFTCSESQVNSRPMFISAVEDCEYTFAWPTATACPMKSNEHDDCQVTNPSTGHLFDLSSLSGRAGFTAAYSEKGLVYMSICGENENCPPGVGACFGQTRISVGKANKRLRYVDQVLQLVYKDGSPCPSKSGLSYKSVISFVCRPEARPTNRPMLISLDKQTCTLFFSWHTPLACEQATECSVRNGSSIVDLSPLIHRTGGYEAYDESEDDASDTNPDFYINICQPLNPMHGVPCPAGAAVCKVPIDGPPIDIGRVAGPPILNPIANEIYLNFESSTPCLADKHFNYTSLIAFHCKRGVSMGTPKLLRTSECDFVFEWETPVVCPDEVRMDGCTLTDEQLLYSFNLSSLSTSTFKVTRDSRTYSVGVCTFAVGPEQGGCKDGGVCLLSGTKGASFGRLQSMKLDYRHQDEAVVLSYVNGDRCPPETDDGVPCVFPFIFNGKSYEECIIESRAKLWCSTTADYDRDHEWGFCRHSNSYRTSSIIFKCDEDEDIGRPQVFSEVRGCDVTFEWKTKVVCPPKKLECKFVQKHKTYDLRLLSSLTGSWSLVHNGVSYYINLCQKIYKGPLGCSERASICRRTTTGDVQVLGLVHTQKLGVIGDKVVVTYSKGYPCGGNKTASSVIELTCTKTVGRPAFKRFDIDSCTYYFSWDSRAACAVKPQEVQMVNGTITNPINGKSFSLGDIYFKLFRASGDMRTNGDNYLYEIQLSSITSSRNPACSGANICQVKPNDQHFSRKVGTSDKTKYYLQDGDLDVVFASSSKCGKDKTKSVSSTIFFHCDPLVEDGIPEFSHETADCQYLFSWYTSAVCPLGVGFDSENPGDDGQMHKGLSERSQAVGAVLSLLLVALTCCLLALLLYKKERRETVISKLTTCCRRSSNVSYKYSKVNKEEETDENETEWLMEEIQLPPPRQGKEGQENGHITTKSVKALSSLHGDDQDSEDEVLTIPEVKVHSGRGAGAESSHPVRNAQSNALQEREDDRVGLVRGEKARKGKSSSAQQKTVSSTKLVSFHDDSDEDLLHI

NCCO[C@H]1OC(CO)[C@@H](O)[C@H](O)C1O[C@H]1OC(CCP(=O)(O)O)[C@@H](O)[C@H](O)C1O (stereo partly drawn) [Compound 18, aminoethyl 6-deoxy-6-dihydroxyphosphinylmethylene-α-D-mannopyranosyl-(1→2)-D-mannopyranoside]
Relative affinity: 19.8

Source: patent publication US10894803B2, “Multi-functionalized polysaccharide compounds and use thereof for targeting the cation-independent mannose 6-phosphate receptor” (NANOMEDSYN, priority 2015, dated 2021)
